# Positions count from the first letter of the chain named. In names and notes the source's numbering stands. Results are given in words; binding and its absence hold for the method and conditions named. Some results given as binding are weak or reduced against the parent protein; the word gives no strength. Where a sequence is shown, tags or fusion partners need not be part of it.
# T1: NuoF, subunit of E. coli respiratory complex I, His-tagged (from plasmid pBADnuoHis / pBADnuo HisnuoF) (E. coli) (UniProt P31979)
# T1 sequence: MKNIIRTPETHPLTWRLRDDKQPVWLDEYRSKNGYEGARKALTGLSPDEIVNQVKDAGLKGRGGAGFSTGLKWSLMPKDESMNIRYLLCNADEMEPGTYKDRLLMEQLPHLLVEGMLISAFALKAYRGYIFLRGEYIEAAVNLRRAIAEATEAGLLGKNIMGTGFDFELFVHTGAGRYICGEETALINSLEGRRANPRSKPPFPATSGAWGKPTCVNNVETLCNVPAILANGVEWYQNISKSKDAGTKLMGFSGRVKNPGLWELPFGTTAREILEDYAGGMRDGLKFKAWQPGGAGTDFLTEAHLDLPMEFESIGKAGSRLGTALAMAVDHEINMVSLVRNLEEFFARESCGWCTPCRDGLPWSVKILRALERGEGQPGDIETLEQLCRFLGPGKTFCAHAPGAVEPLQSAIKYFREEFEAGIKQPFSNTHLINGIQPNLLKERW
# B1: NuoH, subunit of E. coli respiratory complex I (parental) (protein, UniProt P0AFD4 1-325)
# chain: MSWISPELIEILLTILKAVVILLVVVTCGAFMSFGERRLLGLFQNRYGPNRVGWGGSLQLVADMIKMFFKEDWIPKFSDRVIFTLAPMIAFTSLLLAFAIVPVSPGWVVADLNIGILFFLMMAGLAVYAVLFAGWSSNNKYSLLGAMRASAQTLSYEVFLGLSLMGVVAQAGSFNMTDIVNSQAHVWNVIPQFFGFITFAIAGVAVCHRHPFDQPEAEQELADGYHIEYSGMKFGLFFVGEYIGIVTISALMVTLFFGGWQGPLLPPFIWFALKTAFFMMMFILIRASLPRPRYDQVMSFGWKICLPLTLINLLVTAAVILWQAQ
# B2: NuoH D213G, subunit of the D213G^H variant of E. coli respiratory complex I (protein, UniProt P0AFD4 1-325)
# chain: B1 chain with D213G
# B3: NuoG, subunit of E. coli respiratory complex I (protein, UniProt P33602 1-908)
# chain: MATIHVDGKEYEVNGADNLLEACLSLGLDIPYFCWHPALGSVGACRQCAVKQYQNAEDTRGRLVMSCMTPASDGTFISIDDEEAKQFRESVVEWLMTNHPHDCPVCEEGGNCHLQDMTVMTGHSFRRYRFTKRTHRNQDLGPFISHEMNRCIACYRCVRYYKDYADGTDLGVYGAHDNVYFGRPEDGTLESEFSGNLVEICPTGVFTDKTHSERYNRKWDMQFAPSICQQCSIGCNISPGERYGELRRIENRYNGTVNHYFLCDRGRFGYGYVNLKDRPRQPVQRRGDDFITLNAEQAMQGAADILRQSKKVIGIGSPRASVESNFALRELVGEENFYTGIAHGEQERLQLALKVLREGGIYTPALREIESYDAVLVLGEDVTQTGARVALAVRQAVKGKAREMAAAQKVADWQIAAILNIGQRAKHPLFVTNVDDTRLDDIAAWTYRAPVEDQARLGFAIAHALDNSAPAVDGIEPELQSKIDVIVQALAGAKKPLIISGTNAGSLEVIQAAANVAKALKGRGADVGITMIARSVNSMGLGIMGGGSLEEALTELETGRADAVVVLENDLHRHASAIRVNAALAKAPLVMVVDHQRTAIMENAHLVLSAASFAESDGTVINNEGRAQRFFQVYDPAYYDSKTVMLESWRWLHSLHSTLLSREVDWTQLDHVIDAVVAKIPELAGIKDAAPDATFRIRGQKLAREPHRYSGRTAMRANISVHEPRQPQDIDTMFTFSMEGNNQPTAHRSQVPFAWAPGWNSPQAWNKFQDEVGGKLRFGDPGVRLFETSENGLDYFTSVPARFQPQDGKWRIAPYYHLFGSDELSQRAPVFQSRMPQPYIKLNPADAAKLGVNAGTRVSFSYDGNTVTLPVEIAEGLTAGQVGLPMGMSGIAPVLAGAHLEDLKEAQQ
# Target: T1, NuoF, subunit of E. coli respiratory complex I, His-tagged (from plasmid pBADnuoHis / pBADnuo HisnuoF) (E. coli)
# Assay: co-purification (Ni2+ affinity chromatography and size exclusion chromatography, SDS-PAGE); LMNG extract of cytoplasmic membranes applied to ProBond Ni2+-IDA (His tag), washed with 116 mM imidazole, eluted with 308 mM imidazole at pH 6.8, then Superose 6 in buffer A*MNG; 4 °C; subunits seen by SDS-PAGE
row,Binder,binding
1,B1,binds
2,B2,binds
3,B3,binds

# Reference: paper PMC8209014
